From PubChem BioAssay AID2417 (National Center for Advancing Translational Sciences (NCATS), 2010)
Among all 140,000 compounds or so, about 4,300 (3.1%) were called active. This list was built around the results that the source calls inconclusive (neither active nor inactive); the mix of calls is not that of the screen.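 The calls were made as follows: active = readout at or below -70, meaning at least 70% loss of cells showing the perinucleolar compartment, a nuclear body marking cancer cells; inconclusive = readout between -30 and a set limit; inactive = the rest.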

assay: High Content Assay for Compounds that inhibit the Assembly of the Perinucleolar Compartment; settings: PC3M PTB-GFP, PNC prevalence imaging, 16 h; at 10 µM; stronger effect = lower value;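 also: plate controls were DMSO wells for no effect and camptothecin positive control wells for full effect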
In short: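 Compounds are pinned in duplicate onto adhered PC3M cells stably expressing GFP-tagged PTB and incubated 16 h at 37 C. Cells are then fixed, nuclei stained with Hoechst, and PNC-positive cells counted.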

| Compound | activity change (PNC), negative = inhibition |
| --- | --- |
| O=C(NCc1ccco1)C(Cc1ccccc1)N1C(=O)c2ccccc2C1=O (configuration not stated) | inconclusive: -45.4% |
| Cc1csc(N(C)C(=O)CSc2nnc(COc3ccccc3C)o2)n1 | inconclusive: -39.5% |
| O=S1(=O)CC(O)C(N2CCC(c3ccccc3)CC2)C1 (configuration not stated) | inconclusive: -53.5% |
| O=C1C(Cc2ccc(F)cc2)SC(=Nc2ccccc2)N1c1ccccc1 (configuration not stated) | inconclusive: -47% |
| COc1ccc(S(=O)(=O)c2cnc3ccc(OC)cc3c2N2CCC3(CC2)OCCO3)cc1 | inconclusive: -39.9% |
| CCSc1ccccc1C(=O)NCc1ccc(S(N)(=O)=O)cc1 | inconclusive: -31.5% |
| Fc1ccccc1CSc1ncnc2sc3c(c12)CCCC3 | inactive: 149% |
| O=C(CN1CCOCC1)N(c1ccccc1)c1ccc2ccccc2c1 | inconclusive: -58.6% |
| Cc1nc2c(n1C1CCCCC1)C(=O)c1ccccc1C2=O | inactive: 25.7% |
| COc1ccc(N2C(=O)CC(Cc3ccccc3)C2=O)cc1 (configuration not stated) | inconclusive: -47.2% |
| COc1cc(CNCCSc2nnnn2C)cc(Br)c1OCc1ccccc1F | inconclusive: -39.8% |
| CCOc1cc(CNCCO)cc(Br)c1OCc1ccccc1Cl | inconclusive: -32% |
| CC[n+]1ccc(C[n+]2ccccc2)c2ccccc21 | active: -82.3% |
| CCOC(=O)c1c(NC(=O)CSc2nnc(C)s2)sc2c1CCC(C)C2 (configuration not stated) | inconclusive: -39.9% |
| COc1ccc(CNC(=O)Cn2cc([N+](=O)[O-])nc2C)cc1 | active: -85.9% |
| Brc1ccc(OCCn2ccnc2)cc1 | active: -118% |
| O=C(CN1CCN(c2ccc([N+](=O)[O-])cc2)CC1)Nc1nccs1 | inconclusive: -33.4% |
| CC(=O)Nn1c(-c2ccccc2)cc2ccccc21 | inconclusive: -53.2% |
| COc1ccc2cc(/C=C3\SC(=S)NC3=O)c(N3CCOCC3)nc2c1 | inconclusive: -40.8% |
| CCOC(=O)c1c(-c2ccc(OC)cc2)csc1NC(=O)CSc1ncnc2sccc12 | inconclusive: -32% |
| COc1ccc(/C=C/C(=O)c2ccc3c(c2)OCO3)c(OC)c1 | inconclusive: -45.3% |
| N#CC1=C(SCC(=O)c2ccccc2)NC2=C(C(=O)CCC2)C1c1ccco1 (configuration not stated) | active: -89.4% |
| COc1ccc(CCNC(=O)CCNC(=O)c2ccc(Cl)cc2)cc1OC | inconclusive: -40.3% |

| Compound | activity change (PNC), negative = inhibition |
| --- | --- |
| COc1ccc(CCNC(=O)C/C(C)=N/NC(=O)c2ccc(N)cc2)cc1OC | inconclusive: -69% |
| CNC(=S)Nc1ccc(C)cc1 | inactive: 31.8% |
| Cc1cc(C)nc(SCCS(=O)Cc2ccc(Cl)cc2)n1 (configuration not stated) | active: -110% |
| COc1ccc(C2=NN(CN3C(=O)C(=O)c4ccccc43)C(c3ccc(OC)cc3)C2)cc1 (configuration not stated) | inconclusive: -60.2% |
| COc1ccc(/C=C/C(=O)c2ccc3c4c(cccc24)CC3)cc1 | inconclusive: -48% |
| CC/C(=N/Nc1ccccc1C)c1cnnc(SC)n1 | inactive: 16.5% |
| O=S(=O)(c1ccccc1)N1CCN(c2ncccn2)CC1 | inconclusive: -56.6% |
| Cc1ccc(CN(C)C(=O)c2ccccc2Oc2ccccc2)o1 | inconclusive: -42.2% |
| NC(=O)CC[C@@H]1NC(=O)[C@H](CO)NC(=O)c2cc([N+](=O)[O-])cc(I)c2NCC[C@@H](C(N)=O)NC(=O)[C@H](Cc2ccc(O)cc2)NC1=O | inactive: 29.5% |
| O=[N+]([O-])c1ccc2nc(-c3ccccc3)[nH]c2c1 | inconclusive: -30.3% |
| CCC1(CC)C(=O)NC(=O)NC1=NCCc1ccc(O)cc1 | inconclusive: -57.3% |
| CCC(C)OC(=O)C1=C(C)NC(=O)CC1c1ccccc1OC (configuration not stated) | inconclusive: -65.6% |
| C=CCc1ccc(OCCOc2cccc3ccc(C)nc23)c(OC)c1 | inconclusive: -58.9% |
| O=C(NCCN1CCOCC1)[C@H](Cc1ccccc1)N1C(=O)c2ccccc2C1=O | inactive: -13.4% |
| COCCNC(=O)Cn1nc(C(F)(F)F)cc1C | inconclusive: -33.8% |
| Cc1cc(N2C(=O)C3C4C=CC(C4)C3C2=O)ccc1Br (configuration not stated) | inconclusive: -59% |
| CCCC/C(O)=C/c1nc2ccccc2[nH]c1=O | inconclusive: -31.3% |
| CCC(C)NC(=O)c1ccc2c(SCC(=O)O)c3c(nc2c1)CCCC3 (configuration not stated) | inactive: 12.1% |
| CC1(C)C2CCC(C2)C1(C)NC(=O)CN1CCOCC1 (configuration not stated) | inconclusive: -39% |
| COc1cccc(N2CC34C=CC(O3)C(C(=O)O)C4C2=O)c1 (configuration not stated) | inconclusive: -51.4% |
| CC1CCN(C(c2ccc(N(C)C)cc2)c2nnnn2C(C)(C)C)CC1 (configuration not stated) | inactive: 21.5% |
| O=C(CCn1c(=O)sc2ccccc21)Nc1nccs1 | inconclusive: -38% |
| CCOC(=O)C1C(=O)CC(C)(O)C(C(=O)OCC)C1c1ccco1 (configuration not stated) | inactive: -6.99% |

| Compound | activity change (PNC), negative = inhibition |
| --- | --- |
| O=C(O)CCn1cc(/C=C/C(=O)c2ccc(Cl)cc2)c(-c2ccc(Br)cc2)n1 | inconclusive: -46.3% |
| Cc1cc(C)cc(NC(=O)c2ccc(CNc3c(N4CCOCC4)c(=O)c3=O)cc2)c1 | inactive: -22.4% |
| O=C(CSc1ncccn1)NCc1ccc(F)cc1 | inactive: -3.02% |
| O=C(Cn1nc(C(F)(F)F)c2c1CCCC2)Nc1ccc2c(c1)OCO2 | inconclusive: -42.3% |
| COc1ccc(Nc2ncc3c(n2)CC(c2ccccc2)CC3=O)cc1 (configuration not stated) | inconclusive: -51.1% |
| Cc1ccc(S(=O)(=O)Nc2nc3ccccc3nc2NCc2ccco2)cc1 | inconclusive: -46.1% |
| O=C(Nc1nnc(CC2=CCCCC2)s1)c1cccs1 | inactive: -12.8% |
| COc1cccc(NC(=O)CN(C)C(=O)COc2ccc3ccccc3c2)c1 | inactive: -0.117% |
| CCCCN(Cc1cc2cc(OC)ccc2[nH]c1=O)C(=O)c1ccccn1 | inconclusive: -49% |
| c1ccc(OCc2nn3c(-c4cccnc4)nnc3s2)cc1 | inactive: 10.5% |
| COC(=O)CSc1nnc(CNC(=O)c2ccco2)n1-c1ccc(F)cc1 | inconclusive: -31.8% |
| Cc1ccc(C)c(-n2cc[nH]c2=S)c1 | inconclusive: -64.7% |
| O=C(O)c1ccc(CNc2ccccc2C(=O)O)cc1 | active: -131% |
| Cc1ccc(C2=NC3(CCCCC3)N=C2SCC(=O)Nc2ccc3c(c2)OCCO3)cc1 | inactive: 45.6% |
| COc1cc(-c2noc(-c3cccc(Cl)c3)n2)cc(OC)c1OC | inactive: 15.4% |
| CN(C)c1ccc(-c2nn3c(-c4cccnc4)nnc3s2)cc1 | inconclusive: -45.1% |
| O=C(CSc1ncnc2ccccc12)Nc1ccc(N2CCOCC2)cc1 | inconclusive: -39.4% |
| COc1ccc(NC(=O)CCN2CCCCC2)cc1 | inconclusive: -32.1% |
| CCc1c(C)nc(SCCOc2ccc(OC)cc2)[nH]c1=O | inconclusive: -49.2% |
| CCOC(=O)Cc1csc(NC(=O)CSc2nnc(-c3ccc(OC)cc3)n2C)n1 | inconclusive: -68.8% |
| CCOC(=O)N1CCN(C(=O)COc2cccc3c2CCN(Cc2ccccc2C)C3=O)CC1 | inconclusive: -46.1% |
| CCOC(=O)N1CCN(Cc2c(F)cccc2Cl)CC1 | inconclusive: -35.2% |
| O=C(c1ccccc1)N1CCN(C(=O)c2cc3ccccc3o2)CC1 | inconclusive: -47.1% |

| Compound | activity change (PNC), negative = inhibition |
| --- | --- |
| O=C(CNc1ccc2ccccc2c1)N/N=C/c1cc2ccccc2nc1Cl | inactive: 3.2% |
| O=C(CCc1ccccc1)NC(=S)Nc1cccc(Br)c1 | inactive: -8.61% |
| COc1ccc(/C=N/N2CCN(C3c4ccccc4-c4ccccc43)CC2)cc1O | inconclusive: -40.3% |
| COc1ccc(OC)c(Nc2nc(-c3sc(NC(=O)c4ccccc4)nc3C)cs2)c1 | inactive: 5.53% |
| C=CCSC1=C(C#N)C(c2ccccc2OCC)CC(=O)N1 (configuration not stated) | inconclusive: -39.9% |
| Cc1cccc(NC(=O)Cn2c([N+](=O)[O-])cnc2C)c1C | inactive: -18.2% |
| O=C(NNC(=O)c1cccnc1)Nc1ccc([N+](=O)[O-])cc1 | inconclusive: -31.4% |
| N/C(Cc1ccccc1)=N\OC(=O)c1cccc2ccccc12 | inconclusive: -79.9% |
| CSc1nc2c(c(C(F)(F)F)n1)CC(C)CC2 (configuration not stated) | inconclusive: -30.7% |
| COC(=O)c1cc(NCc2ccccc2F)ccc1N1CCOCC1 | inconclusive: -39% |
| CCOC(=O)C1CCN(S(=O)(=O)Cc2ccccc2)CC1 | inconclusive: -35.3% |
| CCOc1ccc(N(CC(=O)NCC2CCCO2)S(=O)(=O)c2ccc(SC)cc2)cc1 (configuration not stated) | inconclusive: -50.1% |
| CCOc1ccc(CNc2ccc(N3CCCC3)cc2)cc1 | inactive: 14.3% |
| O=C(Cc1cccs1)NCCn1ccc2ccccc21 | inconclusive: -68.8% |
| Cc1nnc(NC(=O)CSc2ncnc3c2cnn3-c2ccccc2C)s1 | inconclusive: -37.8% |
| O=C(NCc1ccc2c(c1)OCO2)C1CC(=O)N(C2CCCCCC2)C1 (configuration not stated) | inconclusive: -63.2% |
| CC(C)CC(=O)O/N=C1\C(=O)N(c2ccccc2)c2ccccc21 | inactive: 30.9% |
| O=C(c1ccccc1F)N(NC(=O)C(O)(c1ccccc1)c1ccccc1)c1ccccc1 | inactive: -23.5% |
| CCCNC(=O)Nc1ccc2c(c1)nc(C)n2C | inactive: -6.65% |
| CCc1ccc(N(C(=O)CCC(=O)Nc2cc(C)on2)C(C(=O)NC2CCCC2)c2ccco2)cc1 (configuration not stated) | inconclusive: -46.4% |
| CCOc1cc(/C=C2\C(=O)N(CCc3ccc(OC)c(OC)c3)C(C)=C2C(=O)OC)ccc1O | inactive: 37.4% |
| CCCCCCCCN1C(=O)C(O)=C(C(C)=O)C1c1ccccn1 (configuration not stated) | inconclusive: -30.3% |
| O=C(c1nn2c(C(F)(F)F)cc(-c3ccc(F)cc3)nc2c1Cl)N1CCOCC1 | inconclusive: -39.3% |

Four records drawn at random from those above, as already listed:

| Compound | activity change (PNC), negative = inhibition |
| --- | --- |
| O=C(c1nn2c(C(F)(F)F)cc(-c3ccc(F)cc3)nc2c1Cl)N1CCOCC1 | inconclusive: -39.3% |
| CCOC(=O)Cc1csc(NC(=O)CSc2nnc(-c3ccc(OC)cc3)n2C)n1 | inconclusive: -68.8% |
| O=C(NCc1ccc2c(c1)OCO2)C1CC(=O)N(C2CCCCCC2)C1 (configuration not stated) | inconclusive: -63.2% |
| COc1ccc(S(=O)(=O)c2cnc3ccc(OC)cc3c2N2CCC3(CC2)OCCO3)cc1 | inconclusive: -39.9% |
